Reference: PubChem BioAssay AID1347423 (Functional Genomics Laboratory (NCATS/FGL), 2020)
Hit rate of the full screen: of about 52,000 sequences, about 210 (0.4%) were called active.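 How the source made its calls: active means gene whose silencing raises cell survival under the drug, median off-target-corrected z-score across its silencing RNAs 2 or more; inactive means the rest.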 The list shows a part of the results.

Test: Resistance to Poly (ADP-Ribose) Polymerase inhibitor: Gene Identification via Genome-wide siRNA Screen
Settings: mouse BRCA2 R2336H ES cells, olaparib, CellTiter-Glo viability; hits give high values
Summary of the method: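 Genome-wide siRNA screen (3 siRNAs/gene, 20 nM) in mouse ES cells carrying hypomorphic BRCA2 R2336H; olaparib 500 nM added 48 h post-transfection, CellTiter-Glo viability 72 h later. Normalized to plate-median negative control; MAD z-scores, gene median, seed-adjusted.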

Row | Sequence | z-score
1 | GCAGGUGAGAAAGUAUAAGTT against Mro | inactive: -0.0906
2 | GGUUGCAUUUCUCAAGUAUTT against Olfr19 | inactive: 0.261
3 | GGACAUGAAGCAAGACCAATT against A230050P20Rik | inactive: 2.05
4 | GCUGGAUGCAAAUGAUCUUTT against D17H6S56E-5 | inactive: -0.23
5 | GGAUGAGAAUUUUGAGGCCTT against 1700028O09Rik | inactive: 1.72
6 | GGAGACAAAGAAGAGAAAGTT against Ddx24 | inactive: 1.68
7 | GGUUGUUUAGCCAGUGCACTT against 6330409N04Rik | inactive: 0.143
8 | GCACUUAACAGAGAUACAATT against Cldn12 | inactive: -1.11
9 | GGAUCAAAAGGUAAAGAGATT against Rbbp5 | inactive: 0.0347
10 | GCUGAAGCAAGGUAGCGAUTT against Gbp5 | inactive: 0.868
11 | GCACUCUUCUUCUCUAGCATT against E330017N17 | inactive: -0.188
12 | GGCCGUUUGUGGUCUACUGTT against 3300001M20Rik | inactive: -1.59
13 | GGGAAGUCAUUCACAUAUUTT against Rab39b | inactive: -0.241
14 | GAAAAGAGCUGUAAGAAUGTT against 1700001G17Rik | inactive: -0.0616
15 | GGAGAUCUGAAUGAAAAUUTT against Suhw2 | inactive: -0.288
16 | GGAUGUCAAGCAAAUUUUUTT against Slc25a13 | inactive: 0.887
17 | CCUUCCAACUCUUCUCCUCTT against H2-Tw3 | inactive: 0.495
18 | GCAGGAGGAUUAGUAAAUUTT against Ier2 | inactive: -1.21
19 | GGAAGUUAGCAUUUCUUCCTT against Xpnpep2 | inactive: 0.425
20 | GGAUGUAAUGCGAAGUUUUTT against Vps52 | inactive: 0.186
21 | GGAAAUAUGUAUCAGCUACTT against Smyd5 | inactive: -1.14
22 | CCACUGAUGUGAGAUAUAATT against Zp2 | inactive: -1.61

Row | Sequence | z-score
23 | CGGUGUCCAACCUUACACUTT against Slc8a2 | inactive: 0.902
24 | GGAGAGCAUGUGACCAAAATT against Safb2 | inactive: -2.01
25 | CGGGAAACGUGAAUUUUUUTT against Mtdh | inactive: 0.437
26 | GGGUUAGUCACCUCAUUUUTT against Abhd5 | inactive: -0.345
27 | GCUGGGAUAUGAAAUCUAUTT against Gprc6a | inactive: -0.148
28 | GUAGUUGUUCUGAGAAAUCTT against Krtap16-1 | inactive: 2.49
29 | GGAACAGUGACUCUUCGGGTT against Sorbs1 | inactive: -0.449
30 | GGAGCUAAGUGAUUUUAGATT against Mtf1 | inactive: 0.763
31 | GGCUGUUCAUUUAGAAGAATT against Rps27l | inactive: -1.79
32 | GGACAAUUCAGAGUGAUAGTT against Mog | inactive: -0.307
33 | GCCUUAUGUGUUACAUUAUTT against Prkar1a | inactive: -1.18
34 | GCUCCUUGGGCGAUUUCAGTT against 2010009L17Rik | inactive: -1.48
35 | GGCUAUGGACAAUAUGACUTT against Fdx1 | inactive: 0.737
36 | CCUACCACAACAUGUAUCCTT against S100a11 | inactive: -0.532
37 | GGAUUUCUGUGGAGAUGGGTT against Hcr | inactive: 0.137
38 | CCAGGAUUCCGACUGAAUCTT against 1810007P19Rik | inactive: 0.802
39 | GCUAACUAUCCCUCCACUGTT against Retnla | inactive: -0.291
40 | GGGCUUAAGGCUUAAGACATT against 4933421H10Rik | inactive: -0.651
41 | CCUACCUAUUUAUCAAAGATT against Tmem23 | inactive: 0.362
42 | GGAUCUAUGAUCUCUCAGUTT against Gstt3 | inactive: 0.00083
43 | GGUCUCAGGUUGUUUUGAUTT against Rasl10b | inactive: -1.6
44 | GCAGAUAGCUGCUACCCAUTT against 2410015B03Rik | inactive: -0.147

Single values from the list:
GGUCUCAGGUUGUUUUGAUTT against Rasl10b – z-score: inactive: -1.6
GGAUUUCUGUGGAGAUGGGTT against Hcr – z-score: inactive: 0.137

Continued:

Row | Sequence | z-score
45 | GGGAAAACAGCUCCUCACATT against Zfhx4 | inactive: -1.71
46 | CGAAGCCAAUAAAUGCAGCTT against 4930479M11Rik | inactive: -0.509
47 | GCCCGAUAUUAUAACGGUGTT against Eomes | inactive: 1.79
48 | UAGGAGAUAUCUGCUACCGTT against 7420402K12Rik | inactive: -1.96
49 | GCUUUCCUAGACAAUCUAUTT against Arhgap19 | inactive: -1.14
50 | GGCAGAGACCACUAAUACCTT against D930015E06Rik | inactive: -1.08
51 | CGUGAACAAAAGAAGGGCUTT against Scel | inactive: 0.22
52 | CGGAAAUUCUAGAAGCCAUTT against Kcnab2 | inactive: 0.232
53 | GCUUCGCUCGCAUUCUUAUTT against 1200013F24Rik | inactive: -1.85
54 | GGCGAAGGUGUAGAAUCUCTT against A830094I09Rik | active: 2.23
55 | GGCUUUUUAAAUGCUUCCCTT against Prr7 | inactive: 0.16
56 | GCAGAGGACAAGAAGCUUATT against H2afy3 | inactive: 0.854
57 | GGAGGAUAGUACCAAGCAATT against 1700034H14Rik | inactive: -1.41
58 | CCCGUGGUAAUAGAAAACGTT against D5Ertd135e | inactive: 1.01
59 | GGACAUACUAAUGAGGUCATT against Tbl1x | inactive: -0.489
60 | GGAUGAACCUUCUGACCAATT against Ngfa | inactive: 0.462
61 | GCUCAACAGGCUCAACUACTT against Cndp2 | inactive: -0.241
62 | GGAAGAAGGAACAUUUUGGTT against Fbxo25 | inactive: 0.921
63 | CAUCAAGACAUGACCGUCCTT against AI413582 | inactive: 0.0953
64 | GGAAGACAGAGAAACUCUATT against Clgn | inactive: 1.62
65 | GGAGAGGAGUUCUUCAUUCTT against Adamts1 | inactive: 0.0594
66 | GCUGUCAUAAGUACUAAAUTT against Slc37a2 | inactive: 0.643

Reformatted: entries from further up.

| Row | Sequence | z-score |
| --- | --- | --- |
| 55 | GGCUUUUUAAAUGCUUCCCTT against Prr7 | inactive: 0.16 |
| 56 | GCAGAGGACAAGAAGCUUATT against H2afy3 | inactive: 0.854 |
